# From patent US11344549B2 (priority 2017, dated 2022)
# By UniProt entry, the sequences of proteins in these tests, tags left out. Residues count along the entry.
# UniProt P23458, 850-1154: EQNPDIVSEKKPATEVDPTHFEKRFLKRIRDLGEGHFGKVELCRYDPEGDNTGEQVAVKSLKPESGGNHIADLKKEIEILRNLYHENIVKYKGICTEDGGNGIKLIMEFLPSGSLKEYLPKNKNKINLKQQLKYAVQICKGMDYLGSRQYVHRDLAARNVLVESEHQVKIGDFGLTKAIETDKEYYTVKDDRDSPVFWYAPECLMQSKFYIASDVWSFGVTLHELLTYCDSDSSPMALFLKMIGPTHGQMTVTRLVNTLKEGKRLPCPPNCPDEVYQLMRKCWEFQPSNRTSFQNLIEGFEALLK
# UniProt O60674, 826-1132: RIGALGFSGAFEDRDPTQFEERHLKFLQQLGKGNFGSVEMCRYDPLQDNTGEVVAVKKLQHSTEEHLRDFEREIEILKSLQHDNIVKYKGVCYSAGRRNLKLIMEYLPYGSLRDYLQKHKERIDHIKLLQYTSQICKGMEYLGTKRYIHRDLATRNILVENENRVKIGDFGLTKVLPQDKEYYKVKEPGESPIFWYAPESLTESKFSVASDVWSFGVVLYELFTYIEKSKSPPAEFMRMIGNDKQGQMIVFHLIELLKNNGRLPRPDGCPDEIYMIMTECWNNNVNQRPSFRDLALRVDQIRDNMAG
# Assays:
# JAK1 kinase = JAK1 kinase (Homo sapiens (Human), UniProt P23458); details: read-out: JAK1 IC50
# JAK2 kinase = JAK2 kinase (Homo sapiens (Human), UniProt O60674); details: read-out: JAK2 IC50
smiles,measurement,setting,value
"Cc1cccc(C)c1CNc1nc(Nc2cnn(C)c2)ncc1C(N)=O [Example 4, 4-((2,6-dimethylbenzyl)amino)-2-((1-methyl-1H-pyrazol-4-yl)amino)pyrimidin-5-carboxamide]",IC50,JAK1 kinase,22.2 nM
same,IC50,JAK2 kinase,4.49 nM
